Test results from patent US5486505A, “Polypeptide compounds having growth hormone releasing activity” (Polygen Holding Corporation, priority 1992, dated 1996).
Not every detail of the peptide structures is certain; ends, links or a residue may be inferred. Where a SMILES comes first, the peptide text is derived from it. [ ]: non-standard residue; d: D form.

Tested on: growth hormone (GH) release
Assay: In vivo synergistic effects in unanesthetized rats of combinations of GH-releasing compounds (serum GH by RIA)
Settings: Table 5, dose 10 μg, control 12 ± 3

N=C(N)NCCC[C@@H](NC(=O)[C@@H](N)Cc1ccc(O)cc1)C(=O)N[C@@H](Cc1ccccc1)C(=O)NCC(N)=O [TP, Tyr--DArg--Phe--Gly--NH2] (H-Y[dR]FG-NH2)
GH Released (ng/mL) ±SEM: 79 ± 29 ng/mL
